Laboratory results from patent US20210116467A1, “DIABETES-RELATED BIOMARKERS AND TREATMENT OF DIABETES-RELATED CONDITIONS” (priority 2015, published 2021).
At least one structure is not confirmed: it was looked up by name or label, or the drawing left a doubt.

Tested on: GLP1
Experiment: GLP1 production induced by treatment with bile acids (immunofluorescence staining of TGR5 and GLP1 in CCL-241 cells)
Assay type: cell-based
Conditions: CCL-241 human small intestinal normal epithelial cells; 100 μM bile acid; compared to wild type (WT) and DMSO controls; FIG. 13
Description: Several bile acids were tested for their ability to increase production of GLP-1. Without being bound by theory, the inventor believes that compounds which increase the production of GLP-1 provide an anti-diabetic effect.
CCL-241, a human small intestinal normal epithelial cell were treated with 100 μM of different bile acids and compared to that of wild type (WT) and DMSO treatment as controls. The expression of TGR5 and GLP1 were detected by Immunofluorescence staining.

For `C[C@H](CCC(=O)O)[C@H]1CC[C@H]2[C@@H]3CC[C@@H]4C[C@H](O)CC[C@]4(C)[C@H]3CC[C@]12C` [LCA, lithocholic acid], which “GLP1-promotion effect (expression of GLP1 detected by immunofluorescence staining)” value is on record?
The value was “substantial GLP-1 promotion effect”.
